Details: powder of crystal form A obtained by the acetone/water precipitation method

COc1cc2c(cc1OC)C(=O)C(CC1CCN(Cc3ccccc3)CC1)C2 (centres unmarked) [compound of formula I, 1-benzyl-4-[(5,6-dimethoxyindan-2-one)methyl]piperidine pamoate]
angle of repose: < 30 ° | fluidity: good fluidity

Source: patent US11014885B2, “Method for preparing donepezil pamoate” (ZHEJIANG HUAHAI PHARMACEUTICAL CO., LTD., priority 2017, dated 2021)
